Results: article PMC11017495
No constants are given. Whether binding was seen depends on the method and setting. In cells and extracts the contact can be indirect. Some binding calls cover weakened binding; strength is not graded here.

Target: T1, DExH-box helicase 58 (DHX58), endogenous in liver tissues (not stated (endogenous in liver tissues; mouse and human livers were used in the paper)) (UniProt Q99J87)
T1 sequence: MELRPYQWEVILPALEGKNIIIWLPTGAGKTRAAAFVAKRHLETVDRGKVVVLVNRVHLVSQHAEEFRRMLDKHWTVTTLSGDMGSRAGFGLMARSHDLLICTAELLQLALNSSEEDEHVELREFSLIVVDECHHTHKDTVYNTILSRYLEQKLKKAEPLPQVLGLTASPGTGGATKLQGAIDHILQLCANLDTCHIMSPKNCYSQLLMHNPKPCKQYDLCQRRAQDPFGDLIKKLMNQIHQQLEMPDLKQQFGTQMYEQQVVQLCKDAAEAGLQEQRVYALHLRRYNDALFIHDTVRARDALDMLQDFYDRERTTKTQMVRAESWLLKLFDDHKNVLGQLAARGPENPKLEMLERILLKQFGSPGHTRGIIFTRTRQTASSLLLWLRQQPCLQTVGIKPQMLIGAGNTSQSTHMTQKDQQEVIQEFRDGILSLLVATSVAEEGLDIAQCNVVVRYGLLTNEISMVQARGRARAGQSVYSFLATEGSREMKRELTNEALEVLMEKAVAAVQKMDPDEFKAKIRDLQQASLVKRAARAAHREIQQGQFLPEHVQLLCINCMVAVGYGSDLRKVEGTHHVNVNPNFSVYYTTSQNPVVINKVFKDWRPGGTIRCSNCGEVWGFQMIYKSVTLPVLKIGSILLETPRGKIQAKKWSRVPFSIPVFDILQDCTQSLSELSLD
Assay: co-IP; endogenous proteins in liver tissue lysates; extracts incubated with the antibodies and protein beads overnight, Western blotting

binding: binds
B1: YT521-B homology domain containing 2 (YTHDC2), endogenous in liver tissues (protein, UniProt B2RR83 1-1445)
chain: MSRPSSVSPRPPAPSGGGTGGGGGGSGGGGGGGGGGPASCGPGGGGRAKGLKDIRIDEEVKIAVNIALERFRYGDQREMEFPSSLTSTERAFIHRLSQSLGLVSKSKGKGANRYLTVKKKDGSETAHAMMTCNLTHNTKHAVRSLIQRFPVTNKERTELLPKTERGNVFAVEAENREMSKTSGRLNNGIPQVPVKRGESEFDSFRQSLPVFEKQEEIVKIIKENKVVLIVGETGSGKTTQIPQFLLDDCFKNGIPCRIFCTQPRRLAAIAVAERVAAERRERIGQTIGYQIRLESRVSPKTLLTFCTNGVLLRTLMAGDSTLSTVTHVIVDEVHERDRFSDFLLTKLRDLLQKHPTLKLILSSAALDVNLFIRYFGSCPVIYIQGRPFEVKEMFLEDILRTTGYTNKEMLKYKKEKQREEKQQTTLTEWYSAQENTFKPESQRQRAVASVSEEYDLLDDGGDAVFSQLTEKDVNCLEPWLIKEMDACLSDIWLHKDVDAFAQVFHLILTENVSVDYRHSETSATALMVAAGRGFTSQVEQLISMGANVHSKASNGWMALDWAKHFGQTEIVDLLESYSASLEFGNLDESSLVQTNGNDLSAEDRELLKAYHHSFDDEKVDLDLIMHLLYNICHSCDAGAILIFLPGYDEIVGLRDRILFDDKRFADNTHRYQVFMLHSNMQTSDQKKVLKNPPAGVRKIILSTNIAETSITVNDVVFVIDSGKVKEKSFDALNFVTMLKMVWISKASAIQRKGRAGRCRPGICFRLFSRLRFQNMLEFQTPELLRMPLQELCLHTKLLAPVNCTIADFLMKAPEPPPALIVRNAVQMLKTIDAMDAWEDLTELGYHLADLPVEPHLGKMVLCAVVLKCLDPILTIACTLAYRDPFVLPTQASQKRAAMLCRKRFTAGTFSDHMALLRAFQAWQKARSDGWERAFCEKNFLSQATMEIIIGMRTQLLGQLRASGFVRARGGGDIRDVNTNSENWAVVKAALVAGMYPNLVHVDRENVILTGPKEKKVRFHPTSVLSQPQYKKIPPANGQAAAIQALPTDWLIYDEMTRAHRIANIRCCSAVTPVTVLVFCGPARLASNALQEPSSFRADGIPNDSSDSEMEDRTTANLAALKLDEWLNFKLEPEAASLLLQLRQKWHSLFLRRMRAPSKPWSQVDEATIRAIIAVLSTEEQSAGLQQPSGIGQRPRPMSSEELPLASSWRSNNSRKSTADTEFADGSTTGERVLMKSPSPALHPPQKYKDRGILHPKRSTDDRSDQSSVKSTDSSSYPSPCASPSPPSSGKGSKSPSPRPNMPIRYFIMKSSNLRNLEISQQKGIWSTTPSNERKLNRAFWESSMVYLVFSVQGSGHFQGFSRMSSEIGREKSQDWGSAGLGGVFKVEWIRKESLPFQFAHHLLNPWNDNKKVQISRDGQELEPQVGEQLLQLWERLPLGEKTTSD
